# According to paper doi:10.1101/2025.04.27.650876:
# Results are given in words; binding and its absence hold for the method and conditions named. In cells and extracts the contact can be indirect. Here binding means that the protein was enriched with, or labelled near, the bait; the list need not be complete.
# T1: Developmental Pluripotency Associated 2 (DPPA2), endogenous (human (endogenous in NCI-H661)) (UniProt Q7Z7J5)
# T1 sequence: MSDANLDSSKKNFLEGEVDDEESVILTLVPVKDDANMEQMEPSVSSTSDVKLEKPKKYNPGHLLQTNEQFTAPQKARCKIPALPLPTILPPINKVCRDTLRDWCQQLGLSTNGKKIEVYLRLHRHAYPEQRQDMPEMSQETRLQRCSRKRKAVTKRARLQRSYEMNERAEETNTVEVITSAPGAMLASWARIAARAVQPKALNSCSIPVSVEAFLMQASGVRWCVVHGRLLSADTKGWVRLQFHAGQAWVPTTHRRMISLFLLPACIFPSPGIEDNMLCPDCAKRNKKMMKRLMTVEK
# T2: Developmental Pluripotency Associated 4 (DPPA4), endogenous (human (endogenous in NCI-H661)) (UniProt Q7L190)
# T2 sequence: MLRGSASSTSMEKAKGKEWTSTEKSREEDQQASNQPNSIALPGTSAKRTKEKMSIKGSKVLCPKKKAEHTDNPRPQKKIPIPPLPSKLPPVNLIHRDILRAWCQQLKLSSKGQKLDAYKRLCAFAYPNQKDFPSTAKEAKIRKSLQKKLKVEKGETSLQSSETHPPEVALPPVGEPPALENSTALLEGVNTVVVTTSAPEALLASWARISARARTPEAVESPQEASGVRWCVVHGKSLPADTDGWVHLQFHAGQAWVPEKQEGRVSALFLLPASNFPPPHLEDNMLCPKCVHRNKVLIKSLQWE
# Legend:
# [1] = molecular target: T1, Developmental Pluripotency Associated 2 (DPPA2), endogenous (human (endogenous in NCI-H661)); assay: affinity purification with mass spectrometry
# [2] = molecular target: T2, Developmental Pluripotency Associated 4 (DPPA4), endogenous (human (endogenous in NCI-H661)); assay: affinity purification with mass spectrometry
binding [1],binding [2],Binder
binds,–,"Developmental Pluripotency Associated 4 (DPPA4), endogenous (protein, UniProt Q7L190 1-304) MLRGSASSTSMEKAKGKEWTSTEKSREEDQQASNQPNSIALPGTSAKRTKEKMSIKGSKVLCPKKKAEHTDNPRPQKKIPIPPLPSKLPPVNLIHRDILRAWCQQLKLSSKGQKLDAYKRLCAFAYPNQKDFPSTAKEAKIRKSLQKKLKVEKGETSLQSSETHPPEVALPPVGEPPALENSTALLEGVNTVVVTTSAPEALLASWARISARARTPEAVESPQEASGVRWCVVHGKSLPADTDGWVHLQFHAGQAWVPEKQEGRVSALFLLPASNFPPPHLEDNMLCPKCVHRNKVLIKSLQWE"
–,binds,"Developmental Pluripotency Associated 2 (DPPA2), endogenous (protein, UniProt Q7Z7J5 1-298) MSDANLDSSKKNFLEGEVDDEESVILTLVPVKDDANMEQMEPSVSSTSDVKLEKPKKYNPGHLLQTNEQFTAPQKARCKIPALPLPTILPPINKVCRDTLRDWCQQLGLSTNGKKIEVYLRLHRHAYPEQRQDMPEMSQETRLQRCSRKRKAVTKRARLQRSYEMNERAEETNTVEVITSAPGAMLASWARIAARAVQPKALNSCSIPVSVEAFLMQASGVRWCVVHGRLLSADTKGWVRLQFHAGQAWVPTTHRRMISLFLLPACIFPSPGIEDNMLCPDCAKRNKKMMKRLMTVEK"
